# Some of the results follow.
# B1: CALR truncated at D342 (Homo sapiens) (protein)
# chain: EPAVYFKEQFLDGDGWTSRWIESKHKSDFGKFVLSSGKFYGDEEKDKGLQTSQDARFYALSASFEPFSNKGQTLVVQFTVKHEQNIDCGGGYVKLFPNSLDQTDMHGDSEYNIMFGPDICGPGTKKVHVIFNYKGKNVLINKDIRCKDDEFTHLYTLIVRPDNTYEVKIDNSQVESGSLEDDWDFLPPKKIKDPDASKPEDWDERAKIDDPTDSKPEDWDKPEHIPDPDAKKPEDWDEEMDGEWEPPVIQNPEYKGEWKPRQIDNPDYKGTWIHPEIDNPEYSPDPSIYAYDNFGVLGLDLWQVKSGTIFDNFLITNDEAYAEEFGNETWGVTKAAEKQMKD
# Columns and labels:
# Assay in all cases: glycan array binding signal (z-score within array); higher = stronger binding
# Conditions in all cases: glycan notation: IUPAC condensed, linker removed
# [1] = molecular target: Fuc(a1-3)[Gal(b1-4)]GlcNAc(b1-4)Gal(b1-4)[Fuc(a1-3)]GlcNAc
# How it was run: (§1)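 The binding signal is a Z-score computed within each array and averaged over linkers. Arrays of the same protein sequence at different concentrations or buffers were also averaged together. Data originate from 3228 arrays in the Consortium for Functional Glycomics database, kept only where the protein sequence was available.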
# [2] = molecular target: Fuc(a1-3)[Gal(b1-4)]GlcNAc(b1-4)Gal(b1-4)[Fuc(a1-3)]GlcNAc(b1-4)Gal(b1-4)[Fuc(a1-3)]GlcNAc
# How it was run: as §1
# [3] = molecular target: Fuc(a1-3)[Gal(b1-4)]GlcNAc(b1-6)GalNAc
# How it was run: as §1
# [4] = molecular target: Fuc(a1-3)[Gal(b1-4)]GlcNAc(b1-6)[Gal(b1-3)GlcNAc(b1-3)]Gal(b1-4)Glc
# How it was run: as §1
# [5] = molecular target: Fuc(a1-3)[Gal(b1-4)]GlcNAc(b1-6)[Neu5Ac(a2-3)Gal(b1-3)]GalNAc
# How it was run: as §1
# [6] = molecular target: Fuc(a1-3)[Gal(b1-4)]GlcNAc6S
# How it was run: as §1
# [7] = molecular target: Fuc(a1-3)[Gal3S(b1-4)]GlcNAc
# How it was run: as §1
# [8] = molecular target: Fuc(a1-3)[Gal3S(b1-4)]GlcNAc6S
# How it was run: as §1
# [9] = molecular target: Fuc(a1-3)[GalNAc(b1-4)]GlcNAc
# How it was run: as §1
# [10] = molecular target: Fuc(a1-3)[GalNAc(b1-4)]GlcNAc6S
# How it was run: as §1
# [11] = molecular target: Fuc(a1-3)[GalNAc3S(b1-4)]GlcNAc
# How it was run: as §1
# Fuc(a1-4)GlcNAc = molecular target: Fuc(a1-4)GlcNAc
# How it was run: as §1
# Fuc(b1-3)GlcNAc = molecular target: Fuc(b1-3)GlcNAc
# How it was run: as §1
# Gal(a1-2)Gal = molecular target: Gal(a1-2)Gal
# How it was run: as §1
# Gal(a1-3)Gal = molecular target: Gal(a1-3)Gal
# How it was run: as §1
# Gal(a1-3)Gal(b1-3)GlcNAc = molecular target: Gal(a1-3)Gal(b1-3)GlcNAc
# How it was run: as §1
# [12] = molecular target: Gal(a1-3)Gal(b1-3)GlcNAc(b1-2)Man(a1-3)[Gal(a1-3)Gal(b1-3)GlcNAc(b1-2)Man(a1-6)]Man(b1-4)GlcNAc(b1-4)GlcNAc
# How it was run: as §1
# [13] = molecular target: Gal(a1-3)Gal(b1-3)GlcNAc(b1-3)GalNAc
# How it was run: as §1
# [14] = molecular target: Gal(a1-3)Gal(b1-3)GlcNAc(b1-6)GalNAc
# How it was run: as §1
# [15] = molecular target: Gal(a1-3)Gal(b1-3)[Fuc(a1-4)]GlcNAc(b1-2)Man(a1-3)[Gal(a1-3)Gal(b1-3)[Fuc(a1-4)]GlcNAc(b1-2)Man(a1-6)]Man(b1-4)GlcNAc(b1-4)GlcNAc
# How it was run: as §1
# Gal(a1-3)Gal(b1-4)Glc = molecular target: Gal(a1-3)Gal(b1-4)Glc
# How it was run: as §1
# Gal(a1-3)Gal(b1-4)GlcNAc = molecular target: Gal(a1-3)Gal(b1-4)GlcNAc
# How it was run: as §1
# [16] = molecular target: Gal(a1-3)Gal(b1-4)GlcNAc(b1-3)GalNAc
# How it was run: as §1
# [17] = molecular target: Gal(a1-3)Gal(b1-4)GlcNAc(b1-6)GalNAc
# How it was run: as §1
# [18] = molecular target: Gal(a1-3)Gal(b1-4)[Fuc(a1-3)]GlcNAc
# How it was run: as §1
# [19] = molecular target: Gal(a1-3)Gal(b1-4)[Fuc(a1-3)]GlcNAc(b1-2)Man(a1-3)[Gal(a1-3)Gal(b1-4)[Fuc(a1-3)]GlcNAc(b1-2)Man(a1-6)]Man(b1-4)GlcNAc(b1-4)GlcNAc
# How it was run: as §1
# Gal(a1-3)GalNAc = molecular target: Gal(a1-3)GalNAc
# How it was run: as §1
# [20] = molecular target: Gal(a1-3)[Gal(a1-4)]Gal(b1-4)GlcNAc
# How it was run: as §1
# [21] = molecular target: Gal(a1-4)Gal(b1-3)GlcNAc(b1-2)Man(a1-3)[Gal(a1-4)Gal(b1-3)GlcNAc(b1-2)Man(a1-6)]Man(b1-4)GlcNAc(b1-4)GlcNAc
# How it was run: as §1
# Gal(a1-4)Gal(b1-4)Glc = molecular target: Gal(a1-4)Gal(b1-4)Glc
# How it was run: as §1
# Gal(a1-4)Gal(b1-4)GlcNAc = molecular target: Gal(a1-4)Gal(b1-4)GlcNAc
# How it was run: as §1
# [22] = molecular target: Gal(a1-4)Gal(b1-4)GlcNAc(b1-2)Man(a1-3)[Gal(a1-4)Gal(b1-4)GlcNAc(b1-2)Man(a1-6)]Man(b1-4)GlcNAc(b1-4)GlcNAc
# How it was run: as §1
# [23] = molecular target: Gal(a1-4)Gal(b1-4)GlcNAc(b1-3)Gal(b1-4)Glc
# How it was run: as §1
# Gal(a1-4)GlcNAc = molecular target: Gal(a1-4)GlcNAc
# How it was run: as §1
# Gal(a1-6)Glc = molecular target: Gal(a1-6)Glc
# How it was run: as §1
# Gal(b1-2)Gal = molecular target: Gal(b1-2)Gal
# How it was run: as §1
# Gal(b1-3)Gal = molecular target: Gal(b1-3)Gal
# How it was run: as §1
binder,measurement,setting,value
B1,glycan array binding signal (z-score),[1],0.193
same,glycan array binding signal (z-score),[2],-1.24
same,glycan array binding signal (z-score),[3],-0.529
same,glycan array binding signal (z-score),[4],-0.264
same,glycan array binding signal (z-score),[5],1.34
same,glycan array binding signal (z-score),[6],0.45
same,glycan array binding signal (z-score),[7],-0.195
same,glycan array binding signal (z-score),[8],-0.256
same,glycan array binding signal (z-score),[9],0.435
same,glycan array binding signal (z-score),[10],0.925
same,glycan array binding signal (z-score),[11],-0.567
same,glycan array binding signal (z-score),Fuc(a1-4)GlcNAc,0.043
same,glycan array binding signal (z-score),Fuc(b1-3)GlcNAc,-0.057
same,glycan array binding signal (z-score),Gal(a1-2)Gal,0.551
same,glycan array binding signal (z-score),Gal(a1-3)Gal,0.218
same,glycan array binding signal (z-score),Gal(a1-3)Gal(b1-3)GlcNAc,0.508
same,glycan array binding signal (z-score),[12],0.21
same,glycan array binding signal (z-score),[13],-0.106
same,glycan array binding signal (z-score),[14],0.243
same,glycan array binding signal (z-score),[15],0.326
same,glycan array binding signal (z-score),Gal(a1-3)Gal(b1-4)Glc,-0.012
same,glycan array binding signal (z-score),Gal(a1-3)Gal(b1-4)GlcNAc,-0.398
same,glycan array binding signal (z-score),[16],1.84
same,glycan array binding signal (z-score),[17],0.18
same,glycan array binding signal (z-score),[18],-1.11
same,glycan array binding signal (z-score),[19],2.73
same,glycan array binding signal (z-score),Gal(a1-3)GalNAc,-0.982
same,glycan array binding signal (z-score),[20],0.844
same,glycan array binding signal (z-score),[21],0.526
same,glycan array binding signal (z-score),Gal(a1-4)Gal(b1-4)Glc,0.011
same,glycan array binding signal (z-score),Gal(a1-4)Gal(b1-4)GlcNAc,-0.923
same,glycan array binding signal (z-score),[22],0.225
same,glycan array binding signal (z-score),[23],-0.766
same,glycan array binding signal (z-score),Gal(a1-4)GlcNAc,4.99
same,glycan array binding signal (z-score),Gal(a1-6)Glc,-0.196
same,glycan array binding signal (z-score),Gal(b1-2)Gal,1.78
same,glycan array binding signal (z-score),Gal(b1-3)Gal,1.99

# Two entries from above, bar-delimited.
binder | measurement | setting | value
B1 | glycan array binding signal (z-score) | [13] | -0.106
same | glycan array binding signal (z-score) | [14] | 0.243

# Reference: the supplement of paper PMC8728848
